# Experimental data from PubChem BioAssay (NCATS).
# Inconclusive means that the source gave no clear call. Such entries were picked first, then a sample of the others. Where the call is inconclusive, the potency comes from a doubtful curve fit. Calls of active or inactive are those of the source. The call rests on the fitted dose curve; in most records, active means well fitted curve in the direction sought with a large enough effect; inconclusive means small, poorly fitted or top-dose-only effect, or another doubt; inactive means no such curve, though single readings can be large; an effect the other way counts as inactive or inconclusive.
# Key:
# [1] = Quantitative High-Throughput drug screen in 47 multiple myeloma cell lines against the NCATS MIPE library collection: KMS20_JCRB cell viability assay (AID 1918973); details: CellTiter-Glo ATP, 48 h; viability (% of DMSO): at 45.8 µM (top of the series); further: nearly all actives have a fitted effect of over 45% in size
# Procedure, shortened: (§1)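 We plated 500 myeloma cells per well, pinned in MIPE 4.0 compounds, and incubated for 48 hours at 37C. ATP was then quantified with CellTiter-Glo, with DMSO and media-only wells defining 100% and 0%.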
# [2] = Quantitative High-Throughput drug screen in 47 multiple myeloma cell lines against the NCATS MIPE library collection: KMS21BM_JCRB cell viability assay (AID 1918974); details: ATP luminescence, 48 h; viability: at 45.8 µM (top of the series) unless noted
# Procedure, shortened: as §1
# [3] = Quantitative High-Throughput drug screen in 47 multiple myeloma cell lines against the NCATS MIPE library collection: KMS26_JCRB cell viability assay (AID 1918975); details: KMS26 myeloma cells viability, CellTiter-Glo ATP, 48 h; viability (% of DMSO): at 45.8 µM (top of the series); further: nearly all actives have a fitted effect of over 45% in size
# Procedure, shortened: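 Viability readout: CellTiter-Glo luminescence following 5 min room-temperature incubation with reagent. Prior exposure: 48 h, 37C, humidified 5% CO2, 500 cells per well.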
# [4] = Quantitative High-Throughput drug screen in 47 multiple myeloma cell lines against the NCATS MIPE library collection: NCIH929_DSMZ cell viability assay (AID 1918978); details: NCI-H929 myeloma viability, CellTiter-Glo ATP, 48 h; viability, % of control: at 45.8 µM (top of the series); further: nearly all actives have a fitted effect of over 35% in size
# Procedure, shortened: (§2)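 Myeloma cells (500/well) treated with MIPE 4.0 compounds for 48 h at 37 °C, 5% CO2. Viability read as ATP via CellTiter-Glo luminescence after 5 min at RT; DMSO-only wells = 100%, media-only = 0% viability.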
# [5] = Quantitative High-Throughput drug screen in 47 multiple myeloma cell lines against the NCATS MIPE library collection: MMM1_PLB cell viability assay (AID 1918976); further: nearly all actives have a fitted effect of over 35% in size
# Procedure, shortened: as §2
# [6] = Quantitative High-Throughput drug screen in 47 multiple myeloma cell lines against the NCATS MIPE library collection: MOLP8_DSMZ cell viability assay (AID 1918977); details: MOLP8 myeloma viability, CellTiter-Glo ATP luminescence, 48 h; viability (% of control): at 45.8 µM (top of the series); further: nearly all actives have a fitted effect of over 45% in size
# Procedure, shortened: as §2
# [7] = Quantitative High-Throughput drug screen in 47 multiple myeloma cell lines against the NCATS MIPE library collection: OCIMY1_PLB cell viability assay (AID 1918979); further: nearly all actives have a fitted effect of over 35% in size
# Procedure, shortened: as §2
# [8] = Quantitative High-Throughput drug screen in 47 multiple myeloma cell lines against the NCATS MIPE library collection: MM1S_ATCC cell viability assay (AID 1918980); details: MM1S myeloma viability, CellTiter-Glo ATP luminescence, 48 h; viability (% of control): at 45.8 µM (top of the series); further: nearly all actives have a fitted effect of over 45% in size
# Procedure, shortened: as §2
# [9] = Quantitative High-Throughput drug screen in 47 multiple myeloma cell lines against the NCATS MIPE library collection: KMS12PE_JCRB cell viability assay (AID 1918972); further: nearly all actives have a fitted effect of over 30% in size
# Procedure, shortened: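 Myeloma cells (500 per well) were exposed to MIPE 4.0 compounds by pin transfer and incubated 48 hours at 37C, 5% CO2. Viability was read as ATP by CellTiter-Glo luminescence, normalised to DMSO (100%) and media-only (0%) wells.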
# Potency means the concentration at half of the fitted maximal effect.
smiles,measurement,setting,value
Nc1ccccc1NC(=O)c1ccc(CNC(=O)OCc2cccnc2)cc1,Potency,[1],active: 0.526 µM
same,Potency,[2],active: 0.469 µM
same,Potency,[3],active: 4.69 µM
same,Potency,[4],active: 1.32 µM
COc1ncc(-c2ccc3nccc(-c4ccnnc4)c3c2)cc1NS(=O)(=O)c1ccc(F)cc1F,Potency,[1],"inconclusive: 0.296 µM [cytotoxic, full curve]"
same,viability,[2],inconclusive: 6.86% [cytotoxic]
same,Potency,[3],active: 0.0526 µM
same,Potency,[5],"inconclusive: 0.166 µM [cytotoxic, full curve]"
same,Potency,[6],"inconclusive: 0.0042 µM [cytotoxic, full curve]"
same,Potency,[4],"inconclusive: 0.469 µM [cytotoxic, partial curve, poor fit]"
same,Potency,[7],"inconclusive: 1.18 µM [cytotoxic, partial curve]"
same,Potency,[8],"inconclusive: 0.0047 µM [cytotoxic, full curve]"
CC(C)C(=O)Oc1ccc(CO)cc1[C@H](CCN(C(C)C)C(C)C)c1ccccc1,viability (% of DMSO),[1],inconclusive: 66.4% [cytotoxic]
same,Potency,[2],inactive
same,Potency,[3],"inconclusive: 5.26 µM [cytotoxic, partial curve, poor fit]"
same,Potency,[5],"inconclusive: 10.5 µM [cytotoxic, partial curve, poor fit]"
same,Potency,[6],"inconclusive: 20.9 µM [cytotoxic, partial curve, poor fit]"
same,Potency,[8],inactive
O=C1NC(=O)C(=Cc2ccc3nccnc3c2)S1,Potency,[1],"inconclusive: 7.24 µM [cytotoxic, partial curve, poor fit]"
same,Potency,[2],"inconclusive: 18.2 µM [rising, partial curve]"
same,Potency,[5],active: 8.12 µM
same,Potency,[6],"inconclusive: 8.12 µM [cytotoxic, partial curve, poor fit]"
CCC[C@@H]1C[C@@H](C(=O)N[C@@H]([C@H]2O[C@H](SC)[C@H](O)[C@@H](O)[C@H]2O)[C@@H](C)O)N(C)C1,Potency,[1],"inconclusive: 37.2 µM [cytotoxic, single point]"
same,Potency,[2],"inconclusive: 0.0296 µM [cytotoxic, full curve, poor fit]"
same,Potency,[3],inactive
same,Potency,[5],"inconclusive: 14.8 µM [cytotoxic, partial curve, poor fit]"
same,Potency,[6],inactive
same,Potency,[4],inactive
same,Potency,[8],inactive
Nc1nccc(Oc2ccc(NC(=O)c3c[nH]cc(-c4ccc(F)cc4)c3=O)cc2F)c1Cl,Potency,[1],"inconclusive: 5.9 µM [cytotoxic, partial curve, poor fit]"
same,Potency,[2],"inconclusive: 6.62 µM [rising, full curve, poor fit]"
same,Potency,[3],active: 33.2 µM
same,Potency,[6],active: 20.9 µM
same,Potency,[4],active: 20.9 µM
same,Potency,[7],"inconclusive: 33.2 µM [cytotoxic, single point]"
CNS(=O)(=O)CCc1ccc2[nH]cc(C3CCN(C)CC3)c2c1,Potency,[9],"inconclusive: 29.6 µM [cytotoxic, single point]"
same,Potency,[5],"inconclusive: 2.96 µM [cytotoxic, full curve, poor fit]"
same,Potency,[6],inactive
same,Potency,[7],"inconclusive: 0.0023 µM [rising, full curve, poor fit]"
CNC1[C@H](O)C(O[C@@H]2C(O)C(O[C@H]3O[C@H]([C@@H](C)NC)CC[C@H]3N)[C@@H](N)C[C@H]2N)OC[C@]1(C)O (stereo partly drawn),Potency,[1],"inconclusive: 37.2 µM [cytotoxic, single point]"
same,Potency,[2],"inconclusive: 33.2 µM [rising, single point]"
same,Potency,[3],inactive
same,Potency,[5],"inconclusive: 14.8 µM [cytotoxic, partial curve, poor fit]"
same,Potency,[6],inactive
same,Potency,[8],"inconclusive: 0.0021 µM [rising, full curve, poor fit]"
C[C@](N)(Cc1ccc(O)c(O)c1)C(=O)O,Potency,[1],active: 16.6 µM
same,Potency,[2],active: 20.9 µM
same,Potency,[3],"inconclusive: 10.5 µM [cytotoxic, partial curve]"
same,Potency,[4],"inconclusive: 23.5 µM [cytotoxic, partial curve]"
same,Potency,[7],active: 16.6 µM
same,Potency,[8],"inconclusive: 18.7 µM [cytotoxic, partial curve]"
O=Nc1c(-c2c(O)[nH]c3cc(Br)ccc23)[nH]c2ccccc12,Potency,[1],active: 5.9 µM
same,Potency,[2],"inconclusive: 33.2 µM [rising, partial curve, poor fit]"
same,Potency,[3],active: 18.7 µM
same,Potency,[5],active: 20.9 µM
O=C(Nc1ccccc1-c1cn2c(CN3CCNCC3)csc2n1)c1cnc2ccccc2n1,Potency,[1],active: 2.96 µM
same,Potency,[2],"inconclusive: 0.0042 µM [rising, full curve]"
same,Potency,[3],active: 9.35 µM
NC(=O)Cc1cccc(C(=O)c2ccccc2)c1N,Potency,[1],"inconclusive: 0.0418 µM [rising, full curve, poor fit]"
same,Potency,[2],"inconclusive: 37.2 µM [rising, partial curve]"
same,Potency,[3],inactive
same,Potency,[5],"inconclusive: 4.18 µM [cytotoxic, partial curve, poor fit]"
same,Potency,[6],inactive
same,Potency,[8],"inconclusive: 18.7 µM [cytotoxic, partial curve, poor fit]"
O=C1c2ccccc2-[n+]2ccc3c([nH]c4ccccc43)c21,Potency,[9],active: 5.26 µM
same,Potency,[2],"inconclusive: 2.96 µM [cytotoxic, full curve, poor fit]"
same,Potency,[6],active: 1.48 µM
same,Potency,[4],active: 3.32 µM
CNC(=O)c1ccc(C)c(-n2c(C)cc(OCc3ccc(F)cc3F)c(Br)c2=O)c1,Potency,[1],"inconclusive: 7.43 µM [cytotoxic, partial curve, poor fit]"
same,Potency,[2],"inconclusive: 1.87 µM [cytotoxic, full curve, poor fit]"
same,Potency,[3],"inconclusive: 11.8 µM [cytotoxic, partial curve, poor fit]"
same,Potency,[5],active: 18.7 µM
same,Potency,[6],"inconclusive: 2.09 µM [cytotoxic, partial curve, poor fit]"
same,Potency,[7],"inconclusive: 0.0118 µM [cytotoxic, full curve, poor fit]"
same,Potency,[8],"inconclusive: 37.2 µM [cytotoxic, single point]"
CN(C)c1ccc2cc(C(=O)N[C@@H](CCCN=C(N)CCl)C(=O)NCc3ccccc3)ccc2c1,Potency,[1],active: 8.33 µM
same,Potency,[2],"inconclusive: 37.2 µM [rising, partial curve, poor fit]"
same,Potency,[3],active: 6.62 µM
same,Potency,[6],active: 9.35 µM
same,Potency,[7],"inconclusive: 29.6 µM [cytotoxic, single point]"
O=C(Nc1ccc([N+](=O)[O-])cc1Cl)c1cc(Cl)ccc1O,Potency,[1],active: 0.59 µM
same,Potency,[2],active: 1.05 µM
same,Potency,[3],active: 1.87 µM
same,Potency,[5],active: 0.743 µM
same,Potency,[6],active: 1.66 µM
c1ccc2c(Cc3c[nH]c4ccccc34)c[nH]c2c1,Potency,[1],active: 2.96 µM
same,Potency,[2],"inconclusive: 37.2 µM [rising, partial curve]"
same,Potency,[3],active: 4.69 µM
same,Potency,[7],"inconclusive: 33.2 µM [cytotoxic, single point]"
CNC[C@H](O)c1ccc(O)c(O)c1,Potency,[1],active: 10.8 µM
same,Potency,[2],"inconclusive: 0.0241 µM [rising, full curve]"
same,Potency,[3],active: 10.8 µM
same,Potency,[5],active: 6.79 µM
same,Potency,[6],active: 8.55 µM
same,Potency,[7],active: 38.2 µM
O=C1NC(=O)C(c2ccccc2[N+](=O)[O-])=C1Nc1ccc(O)c(Cl)c1,Potency,[1],"inconclusive: 1.48 µM [cytotoxic, full curve, poor fit]"
same,Potency,[2],"inconclusive: 0.187 µM [cytotoxic, full curve, poor fit]"
same,Potency,[3],"inconclusive: 1.32 µM [rising, partial curve]"
same,Potency,[6],"inconclusive: 10.5 µM [rising, single point]"
same,Potency,[4],"inconclusive: 26.4 µM [cytotoxic, single point]"
same,Potency,[8],"inconclusive: 0.935 µM [cytotoxic, full curve, poor fit]"
Clc1ccc(C(Cn2ccnc2)OCc2ccc(Sc3ccccc3)cc2)c(Cl)c1 (stereo not drawn),Potency,[1],"inconclusive: 29.6 µM [cytotoxic, single point]"
same,Potency,[2],active: 26.4 µM
same,Potency,[3],"inconclusive: 37.2 µM [cytotoxic, single point]"
same,Potency,[6],"inconclusive: 33.2 µM [cytotoxic, single point]"
same,Potency,[4],"inconclusive: 29.6 µM [cytotoxic, single point]"
same,Potency,[7],"inconclusive: 33.2 µM [cytotoxic, single point]"
O=C1c2c(O)ccc(O)c2C(=O)c2c(NCCNCCO)ccc(NCCNCCO)c21,Potency,[1],active: 0.132 µM
same,Potency,[2],active: 1.48 µM
same,Potency,[3],active: 2.35 µM
same,Potency,[6],active: 1.32 µM
same,Potency,[7],active: 13.2 µM
CC(C)C[C@@H](C(=O)N[C@H](C(=O)OC1CCCC1)c1ccccc1)[C@H](O)C(=O)NO,Potency,[1],"inconclusive: 20.9 µM [cytotoxic, partial curve, poor fit]"
same,Potency,[2],"inconclusive: 14.8 µM [rising, partial curve, poor fit]"
same,Potency,[5],active: 23.5 µM
same,Potency,[6],active: 23.5 µM
same,Potency,[4],active: 18.7 µM
same,Potency,[7],active: 16.6 µM

# A portion taken from the entries so far, for reference:
smiles,measurement,setting,value
O=Nc1c(-c2c(O)[nH]c3cc(Br)ccc23)[nH]c2ccccc12,Potency,[5],active: 20.9 µM
O=C(Nc1ccccc1-c1cn2c(CN3CCNCC3)csc2n1)c1cnc2ccccc2n1,Potency,[1],active: 2.96 µM
same,Potency,[2],"inconclusive: 0.0042 µM [rising, full curve]"
same,Potency,[3],active: 9.35 µM
NC(=O)Cc1cccc(C(=O)c2ccccc2)c1N,Potency,[1],"inconclusive: 0.0418 µM [rising, full curve, poor fit]"
